Record: PubChem BioAssay AID652259 (Drosophila RNAi Screening Center, 2013)
In all, the deposit lists about 22,000 reagents; this is an unselected part of those that have a named target and a result. Of all reagents, 233 (1.1%) were called active. 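Light values are raw, unnormalised plate reads; the ratio scores behind the reporter calls were not deposited.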 Names joined by + are all predicted targets of the reagent. The record does not give: the amount of reagent, the time to read-out, the dose of the treatment.

- Aim: 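Knock-downs that push a Wingless-driven reporter up or down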 (primary screen)
- Cell system: Drosophila clone 8 imaginal disc epithelial cells
- Reagents: long dsRNA against Drosophila genes
- Treatment: pathway stimulated by co-transfected Wingless expression plasmid
- Detection: 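Firefly luciferase from a tcf-site Wingless reporter, measured alongside co-transfected Renilla luciferase that tracks transfection; pathway stimulated by a Wingless plasmid; the firefly-to-Renilla ratio is not deposited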
- Reading the numbers: firefly reporter light: higher = more Wg reporter light, before normalisation; Renilla control light: higher = more transfected or surviving cells
- Rule for the call: 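a knock-down is a candidate when at least two out of four statistical tests show it departing from its plate mean; one test alone signals a weak candidate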
- Meaning of the calls: active = candidate regulator (raises or lowers reporter); inactive = not a candidate

The first 2 records, ahead of the listing:
gene | dsRNA | firefly reporter light, replicate 1 | firefly reporter light, replicate 2 | Renilla control light, replicate 1 | Renilla control light, replicate 2 | Call
CG8043 | DRSC16368 | 14172 | – | 3766 | – | inactive
CG32700 | DRSC17857 | 19968 | – | 9053 | – | inactive

Results, repeating the preview:
gene | dsRNA | firefly reporter light, replicate 1 | firefly reporter light, replicate 2 | Renilla control light, replicate 1 | Renilla control light, replicate 2 | Call
CG8043 | DRSC16368 | 14172 | – | 3766 | – | inactive
CG32700 | DRSC17857 | 19968 | – | 9053 | – | inactive
CG32700 | DRSC17858 | 12884 | – | 6448 | – | inactive
CG18368 | DRSC06731 | 6528 | – | 2576 | – | inactive
CG7806 | DRSC03071 | 12772 | – | 4308 | – | inactive
T3dh + pgc | DRSC04659 | 9376 | – | 2669 | – | inactive
TBPH | DRSC04660 | 11668 | – | 2721 | – | inactive
CG4829 | DRSC19920 | 2320 | 5492 | 897 | 2123 | inactive
Med | DRSC16737 | 22504 | – | 6912 | – | inactive
Jon65Aii | DRSC10665 | 2265 | 8327 | 1184 | 3980 | inactive
CG31141 | DRSC13646 | 4660 | – | 1493 | – | inactive
obst-H | DRSC10935 | 11731 | – | 4960 | – | inactive
obst-H | DRSC10940 | 8437 | – | 3634 | – | inactive
MnM | DRSC08423 | 7543 | – | 2843 | – | inactive
CG31693 | DRSC03674 | 13162 | – | 6570 | – | inactive
VhaM9.7-c | DRSC08204 | 5600 | – | 1641 | – | inactive
CdGAPr | DRSC03289 | 3028 | 4137 | 838 | 2411 | inactive
CG8860 | DRSC07291 | 8162 | – | 3053 | – | inactive
Acph-1 | DRSC14103 | 9732 | – | 3316 | – | inactive
sordd2 + sordd1 | DRSC20136 | 4205 | 6971 | 1504 | 2822 | inactive
dpr13 | DRSC06160 | 5728 | – | 1925 | – | inactive
dpr13 | DRSC06464 | 6352 | – | 2210 | – | inactive
swaPsi | DRSC21685 | 6.38e5 | 5.98e5 | 3.42e5 | 2.43e5 | inactive
CG11069 | DRSC14289 | 2352 | 5096 | 1027 | 1192 | inactive
eIF4EHP | DRSC13653 | 4406 | – | 2032 | – | inactive
eIF4EHP | DRSC14265 | 1490 | 6202 | 728 | 2018 | inactive
CG7492 | DRSC10855 | 3104 | – | 1542 | – | inactive
IntS4 | DRSC17810 | 2169 | 5269 | 1158 | 2818 | inactive
Egfr | DRSC03871 | 17779 | – | 10391 | – | inactive
Egfr | DRSC04613 | 8816 | – | 3084 | – | inactive
tgo | DRSC17077 | 4089 | – | 1523 | – | inactive
neb | DRSC03577 | 11009 | – | 2588 | – | inactive
Ugt303B1 | DRSC15141 | 24544 | – | 16582 | – | inactive
Snx21 | DRSC00564 | 11072 | – | 4082 | – | inactive
CG15458 | DRSC20529 | 11440 | – | 6912 | – | inactive
Nsun5 | DRSC15835 | 2868 | 4449 | 578 | 1792 | inactive
Bfc | DRSC08623 | 9477 | – | 4320 | – | inactive
GstE1 | DRSC07437 | 9181 | – | 2253 | – | inactive
CG9928 | DRSC03274 | 1529 | 5633 | 806 | 2322 | inactive
pod1 | DRSC18362 | 3483 | 11588 | 480 | 1671 | inactive
CG14659 | DRSC12245 | 16377 | – | 6540 | – | inactive
wdp | DRSC04367 | 7184 | – | 2417 | – | inactive
CG6465 | DRSC16046 | 7331 | – | 2520 | – | inactive
CG14220 | DRSC19577 | 28704 | – | 1058 | – | inactive
CG31111 | DRSC14649 | 19971 | – | 16037 | – | inactive
Gycbeta100B | DRSC14039 | 3045 | – | 1373 | – | inactive
Gycbeta100B | DRSC14040 | 2800 | – | 992 | – | inactive
Gycbeta100B | DRSC16691 | 3969 | 11952 | 2192 | 4843 | inactive
CG32104 | DRSC10127 | 8541 | – | 3069 | – | inactive
CG32104 | DRSC10128 | 9908 | – | 3744 | – | inactive
CG34167 | DRSC01525 | 18964 | – | 9440 | – | inactive
CG6254 | DRSC16002 | 5864 | – | 2403 | – | inactive
CG16894 | DRSC06634 | 11072 | – | 3448 | – | inactive
CG16894 | DRSC21785 | 5.46e5 | 6.24e5 | 1.77e5 | 1.98e5 | inactive
CNPYb | DRSC09845 | 5690 | – | 2323 | – | inactive
CG4020 | DRSC18337 | 16323 | – | 9011 | – | inactive
Jon65Ai | DRSC09731 | 1945 | 11474 | 1274 | 4905 | inactive
CG9447 | DRSC05008 | 1643 | 6576 | 135 | 3392 | inactive
Vps2 | DRSC14886 | 5511 | 12583 | 856 | 2000 | inactive
CG3483 | DRSC04371 | 13520 | – | 3274 | – | inactive
alpha-Est4aPsi | DRSC12473 | 2048 | – | 517 | – | inactive
CG5087 | DRSC10479 | 1194 | 7795 | 877 | 2849 | inactive
mtrm | DRSC10322 | 3051 | – | 820 | – | inactive
mAChR-B | DRSC16345 | 17301 | – | 4128 | – | inactive
CG4962 | DRSC10464 | 7958 | – | 3325 | – | inactive
CG14500 | DRSC06471 | 7312 | – | 2205 | – | inactive
PGRP-LB | DRSC14926 | 10439 | – | 3432 | – | inactive
UQCR-14 | DRSC19870 | 22721 | – | 9872 | – | inactive
Rox8 | DRSC16829 | 14229 | – | 11289 | – | inactive
CG30429 | DRSC04040 | 21704 | – | 9053 | – | inactive
CG15286 | DRSC01907 | 3510 | 11168 | 1077 | 2962 | inactive
CG11839 | DRSC14398 | 21930 | – | 16775 | – | inactive
nudE | DRSC09000 | 6282 | – | 2402 | – | inactive
nudE | DRSC10962 | 6571 | – | 3936 | – | inactive
